Source: paper PMC10014584
Results are given in words; binding and its absence hold for the method and conditions named. Binding seen in cells or lysates may run through a third protein. Some results given as binding are weak or reduced against the parent protein; the word gives no strength.

T1: SmBiT-STING (mouse) (UniProt Q3TBT3)
T1 sequence: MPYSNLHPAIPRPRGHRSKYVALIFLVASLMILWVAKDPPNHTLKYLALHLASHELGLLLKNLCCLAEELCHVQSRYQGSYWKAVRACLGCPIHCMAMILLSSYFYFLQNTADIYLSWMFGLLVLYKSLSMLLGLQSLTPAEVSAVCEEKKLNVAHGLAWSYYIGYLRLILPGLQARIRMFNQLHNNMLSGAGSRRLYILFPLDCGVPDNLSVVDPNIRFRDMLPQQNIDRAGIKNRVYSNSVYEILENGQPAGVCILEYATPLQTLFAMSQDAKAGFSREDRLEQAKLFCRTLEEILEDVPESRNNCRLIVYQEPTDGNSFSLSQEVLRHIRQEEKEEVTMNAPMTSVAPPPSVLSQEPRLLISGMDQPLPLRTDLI


Target: T1, SmBiT-STING (mouse)
Assay: split reporter; split NanoLuc luciferase assay in Sting-/- MEFs stably expressing both fusions; Nano-Glo Endurazine substrate 2 h at 37 °C, then vehicle (DMSO) or DMXAA for 4 h

Binder | binding
LgBiT-Tsg101 (WT) (protein, UniProt Q61187 1-391) MAVSESQLKKMMSKYKYRDLTVRQTVNVIAMYKDLKPVLDSYVFNDGSSRELVNLTGTIPVRYRGNIYNIPICLWLLDTYPYNPPICFVKPTSSMTIKTGKHVDANGKIYLPYLHDWKHPRSELLELIQIMIVIFGEEPPVFSRPTVSASYPPYTATGPPNTSYMPGMPSGISAYPSGYPPNPSGYPGCPYPPAGPYPATTSSQYPSQPPVTTVGPSRDGTISEDTIRASLISAVSDKLRWRMKEEMDGAQAELNALKRTEEDLKKGHQKLEEMVTRLDQEVAEVDKNIELLKKKDEELSSALEKMENQSENNDIDEVIIPTAPLYKQILNLYAEENAIEDTIFYLGEALRRGVIDLDVFLKHVRLLSRKQFQLRALMQKARKTAGLSDLY | binds
LgBiT-Tsg101 (ΔUEV) (domain or fragment, UniProt Q61187 146-391) TVSASYPPYTATGPPNTSYMPGMPSGISAYPSGYPPNPSGYPGCPYPPAGPYPATTSSQYPSQPPVTTVGPSRDGTISEDTIRASLISAVSDKLRWRMKEEMDGAQAELNALKRTEEDLKKGHQKLEEMVTRLDQEVAEVDKNIELLKKKDEELSSALEKMENQSENNDIDEVIIPTAPLYKQILNLYAEENAIEDTIFYLGEALRRGVIDLDVFLKHVRLLSRKQFQLRALMQKARKTAGLSDLY | no binding
